Test results reported in article PMC8583706.
No constants are given. Whether binding was seen depends on the method and setting. In cells and extracts the contact can be indirect. Some binding calls cover weakened binding; strength is not graded here.

Protein sequences, listed by entry. Tags and fused reporters are not part of them. Residues count along the entry.
UniProt P35869, residues 11-848: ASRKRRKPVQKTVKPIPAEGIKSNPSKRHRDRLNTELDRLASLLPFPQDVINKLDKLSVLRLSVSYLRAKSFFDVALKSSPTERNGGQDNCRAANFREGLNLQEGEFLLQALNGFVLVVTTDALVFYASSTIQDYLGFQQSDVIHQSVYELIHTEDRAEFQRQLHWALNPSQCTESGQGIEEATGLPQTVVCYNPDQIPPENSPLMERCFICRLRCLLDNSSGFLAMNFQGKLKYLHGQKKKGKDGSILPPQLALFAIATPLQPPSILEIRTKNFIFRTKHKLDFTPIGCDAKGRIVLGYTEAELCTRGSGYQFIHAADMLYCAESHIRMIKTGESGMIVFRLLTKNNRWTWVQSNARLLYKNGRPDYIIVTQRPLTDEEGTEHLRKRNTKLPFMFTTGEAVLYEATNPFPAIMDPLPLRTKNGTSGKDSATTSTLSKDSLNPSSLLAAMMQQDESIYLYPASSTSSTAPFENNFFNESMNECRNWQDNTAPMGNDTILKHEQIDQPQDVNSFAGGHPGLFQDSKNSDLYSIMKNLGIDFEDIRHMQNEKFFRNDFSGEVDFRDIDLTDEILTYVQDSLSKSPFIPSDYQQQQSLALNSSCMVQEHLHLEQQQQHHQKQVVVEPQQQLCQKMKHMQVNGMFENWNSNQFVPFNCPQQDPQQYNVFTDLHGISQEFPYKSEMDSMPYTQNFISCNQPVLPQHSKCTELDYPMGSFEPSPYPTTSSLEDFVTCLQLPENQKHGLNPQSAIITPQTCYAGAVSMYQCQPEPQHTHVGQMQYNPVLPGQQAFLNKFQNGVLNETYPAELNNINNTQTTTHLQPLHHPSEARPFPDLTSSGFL
UniProt P35222: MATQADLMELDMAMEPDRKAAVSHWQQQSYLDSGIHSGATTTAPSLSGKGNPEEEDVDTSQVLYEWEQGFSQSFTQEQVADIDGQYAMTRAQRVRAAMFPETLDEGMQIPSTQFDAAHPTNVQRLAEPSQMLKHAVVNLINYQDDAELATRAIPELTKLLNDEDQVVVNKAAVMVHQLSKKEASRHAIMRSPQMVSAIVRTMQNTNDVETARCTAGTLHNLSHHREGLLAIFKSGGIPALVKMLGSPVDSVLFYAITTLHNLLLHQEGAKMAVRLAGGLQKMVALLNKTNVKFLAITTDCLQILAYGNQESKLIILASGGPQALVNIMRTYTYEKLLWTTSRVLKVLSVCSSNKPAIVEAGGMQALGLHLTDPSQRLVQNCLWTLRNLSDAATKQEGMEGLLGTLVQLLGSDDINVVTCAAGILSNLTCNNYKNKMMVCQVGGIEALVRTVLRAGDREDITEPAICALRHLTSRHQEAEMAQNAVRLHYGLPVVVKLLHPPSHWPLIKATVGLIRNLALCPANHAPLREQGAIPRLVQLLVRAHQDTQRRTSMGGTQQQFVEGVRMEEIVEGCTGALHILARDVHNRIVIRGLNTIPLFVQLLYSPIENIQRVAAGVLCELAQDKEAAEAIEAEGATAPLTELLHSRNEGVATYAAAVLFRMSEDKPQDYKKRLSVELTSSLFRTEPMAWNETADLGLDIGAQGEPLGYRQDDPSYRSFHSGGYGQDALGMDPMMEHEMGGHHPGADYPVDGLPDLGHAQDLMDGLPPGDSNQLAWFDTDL

Target: Aryl hydrocarbon receptor (human (endogenous in HuH-7)) (UniProt P35869)
Assay: co-IP; lysates (RIPA) of shCtrl and shAhR HuH-7 cells treated with IFN-γ (40 ng/mL) or KYN (100 μM) for 8 h; pre-cleaned with protein G beads; protein G beads coupled with anti-AhR or IgG, 4 °C, 4 h; immunoblot for β-catenin

## β-catenin (from UniProt P35222 1-781)
  binding: binds
